Values from PubChem BioAssay AID1224830 (NIAID, 2016).
The whole screen tested about 18,000 reagents; shown is a random part of them. About 2,900 of all reagents (16%) were called active. 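Calls are made per well; low scores hint the gene aids the LPS response, high scores that it dampens it.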 Repeated entries: four replicate wells of each siRNA pool. No sequences are given here.

Assay: 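Regulators of TLR4 signalling towards TNF-alpha in macrophage-like cells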 (primary screen)
System: human THP-1 monocytic leukaemia cells, TNF dual-luciferase reporter clone, PMA-differentiated to macrophage-like cells
Knock-down reagent: siRNA pool against human genes, 50 nM
Duration: LPS for 4 h, given about 3 days after siRNA transfection
Challenge: bacterial LPS (TLR4 ligand), 10 ng/ml
Read-out: 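TNF firefly reporter luminescence divided by renilla, normalised to the plate median, then turned into a robust z-score for each replicate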
Scale: TNF reporter robust z-score: higher = stronger TNF reporter response to LPS
Hit rule: 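a well is active when its z-score exceeds 2.8 or falls below -1.5; control wells carry no call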

| gene knocked down | TNF reporter robust z-score | activity call |
| --- | --- | --- |
| PSMC5 | -1.03 | inactive |
| PSMC5 | -1.04 | inactive |
| PSMC5 | -1.16 | inactive |
| PSMC5 | -1.09 | inactive |
| ROMO1 | -0.03 | inactive |
| ROMO1 | 1.51 | inactive |
| ROMO1 | 0.52 | inactive |
| ROMO1 | 0.5 | inactive |
| C1QTNF9 | 0.05 | inactive |
| C1QTNF9 | -0.79 | inactive |
| C1QTNF9 | 0.11 | inactive |
| C1QTNF9 | 0.14 | inactive |
| LRRTM1 | 0.69 | inactive |
| LRRTM1 | 1.82 | inactive |
| LRRTM1 | 1.29 | inactive |
| LRRTM1 | 1.81 | inactive |
| OR2T4 | -0.6 | inactive |
| OR2T4 | 0.05 | inactive |
| OR2T4 | -0.98 | inactive |
| OR2T4 | -0.8 | inactive |
| LYPLA1 | -0.42 | inactive |
| LYPLA1 | 0.7 | inactive |
| LYPLA1 | 0.2 | inactive |
| LYPLA1 | 0.99 | inactive |
| FFAR2 | -0.12 | inactive |
| FFAR2 | 0.2 | inactive |
| FFAR2 | 0.11 | inactive |
| FFAR2 | 0.98 | inactive |
| IFT88 | 4.49 | active |
| IFT88 | 1.27 | inactive |
| IFT88 | 1.97 | inactive |
| IFT88 | 3.24 | active |
| NKD2 | 0.23 | inactive |
| NKD2 | 0.54 | inactive |
| NKD2 | 0.83 | inactive |
| NKD2 | 0.28 | inactive |
| FPGT | -0.54 | inactive |
| FPGT | 0.69 | inactive |
| FPGT | -0.18 | inactive |
| FPGT | 0.74 | inactive |
| EP400 | -0.61 | inactive |
| EP400 | -0.86 | inactive |
| EP400 | -0.01 | inactive |
| EP400 | -0.82 | inactive |
| THRA | – | inactive |
| THRA | 0.69 | inactive |
| THRA | 0.75 | inactive |
| THRA | -0.02 | inactive |
| THRA | -0.37 | inactive |
| HNRNPA3 | 1.23 | inactive |
| HNRNPA3 | 1.62 | inactive |
| HNRNPA3 | 0.82 | inactive |
| HNRNPA3 | 1.29 | inactive |
| ADSS1 | 0.33 | inactive |
| ADSS1 | 0.73 | inactive |
| ADSS1 | 0.47 | inactive |
| ADSS1 | 0.84 | inactive |
| EQTN | -0.66 | inactive |
| EQTN | -1.02 | inactive |
| EQTN | -0.25 | inactive |
| EQTN | 0.7 | inactive |
| HMGCR | -1.18 | inactive |
| HMGCR | 0.14 | inactive |
| HMGCR | -1.01 | inactive |
| HMGCR | 0.21 | inactive |
| DPH5 | 0.28 | inactive |
| DPH5 | 0.2 | inactive |
| DPH5 | 0.15 | inactive |
| DPH5 | 0.87 | inactive |
| TMOD2 | -0.59 | inactive |
| TMOD2 | -0.09 | inactive |
| TMOD2 | 4.16 | active |
| TMOD2 | 3.53 | active |
| TFF2 | 0.23 | inactive |
| TFF2 | 0.51 | inactive |
| TFF2 | 0.46 | inactive |
| TFF2 | 0.17 | inactive |
| SGCG | -0.53 | inactive |
| SGCG | 0.29 | inactive |
| SGCG | -0.88 | inactive |
| SGCG | -0.82 | inactive |
| GCNT4 | 0.35 | inactive |
| GCNT4 | 0.4 | inactive |
| GCNT4 | -0.26 | inactive |
| GCNT4 | 0.36 | inactive |
| DTD1 | -1.52 | active |
| DTD1 | -0.46 | inactive |
| DTD1 | -1.59 | active |
| DTD1 | -0.25 | inactive |
| PHEX | -0.82 | inactive |
| PHEX | -0.39 | inactive |
| PHEX | -0.94 | inactive |
| PHEX | -0.4 | inactive |
| MAGEB3 | 0.94 | inactive |
| MAGEB3 | 1.49 | inactive |
| MAGEB3 | 0.03 | inactive |
| MAGEB3 | 1 | inactive |
| APBA2 | -1.28 | inactive |
| APBA2 | -0.89 | inactive |
| APBA2 | -0.84 | inactive |
| APBA2 | -0.05 | inactive |
| VCPKMT | 0.99 | inactive |
| VCPKMT | 0.91 | inactive |
| VCPKMT | 1.42 | inactive |
| VCPKMT | 1.26 | inactive |
| EEFSEC | -0.54 | inactive |
| EEFSEC | -0.2 | inactive |
| EEFSEC | -0.19 | inactive |
| EEFSEC | -0.67 | inactive |
| TOMM7 | -0.63 | inactive |
| TOMM7 | 0.39 | inactive |
| TOMM7 | 0 | inactive |
| TOMM7 | -0.28 | inactive |
